PubChem BioAssay AID1053208, Peter MacCallum Cancer Centre | 2014
Shown is an unselected part of about 17,000 deposited reagents. 788 of all reagents (4.7%) count as active. 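Calls rest on z-score classes alone; an extra cut-off of viability at most 70% of control was not applied to them.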 A reagent listed more than once was tested more than once; the source does not tell the runs apart. Further read-outs or replicates are left out here.

Aim: 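Genes whose silencing cuts survival of bone tumour cells only with doxorubicin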 (primary screen)
Cell system: mouse osteosarcoma cells, early-passage culture from an engineered mouse model of fibroblastic bone tumour
Knock-down reagent: siRNA pool against mouse genes, 40 nM
Time to read-out: about 120 h (48 h before drug, then 72 h with drug)
Treatment: doxorubicin 100 nM for 72 h, roughly 30-40% inhibitory dose
Measured: 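Viability read as ATP luminescence after 72 h of 100 nM doxorubicin or none, duplicate wells averaged, scaled to non-targeting siRNA, then expressed as robust z-scores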
Reading the numbers: viability z-score with doxorubicin: higher = more viable cells under doxorubicin; viability z-score without drug: higher = more viable cells with knock-down alone
Active means: 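Called active if knock-down leaves viability unchanged without drug (z within -2 to 2) but lowers it with doxorubicin (z at or under -2)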

Igfbp3 [SID152285419] gave combined z-score class no change with or without drug; viability z-score with doxorubicin -0.22; viability z-score without drug -0.84; inactive. With knock-down of Inpp4a [SID152339058] the results were combined z-score class no change with or without drug; viability z-score with doxorubicin 0; viability z-score without drug 0; inactive. Osm [SID152298684] showed combined z-score class no change with or without drug; viability z-score with doxorubicin -1.24; viability z-score without drug -0.17; inactive. With knock-down of Mrgpra7 [SID152325019], the record shows combined z-score class no change with or without drug; viability z-score with doxorubicin 0.67; viability z-score without drug 0; inactive. With knock-down of 1700018F24Rik [SID152279078] the results were combined z-score class no change with or without drug; viability z-score with doxorubicin -1.8; viability z-score without drug -0.67; inactive. With knock-down of Rmc1 [SID152326496] the results were combined z-score class no change with or without drug; viability z-score with doxorubicin 0; viability z-score without drug 0.34; inactive.

Against Ppm1n [SID152324588], the values are combined z-score class low cell count with doxorubicin only; viability z-score with doxorubicin -3.15; viability z-score without drug -1.18; active. Or10a3m [SID152320534] scored combined z-score class no change with or without drug; viability z-score with doxorubicin -0.9; viability z-score without drug -0.17; inactive. Nudt12 [SID152288150] showed combined z-score class no change with or without drug; viability z-score with doxorubicin -1.24; viability z-score without drug -1.01; inactive. For Kmt5c [SID152261259], the values are combined z-score class no change with or without drug; viability z-score with doxorubicin 0.9; viability z-score without drug -0.17; inactive.

Hits, among the entries above:
Ppm1n [SID152324588] → combined z-score class: low cell count with doxorubicin only; viability z-score with doxorubicin: -3.15; viability z-score without drug: -1.18; outcome: active

Additional reagents follow:
Against Arhgap9 [SID152284715] the deposit lists combined z-score class no change with or without drug; viability z-score with doxorubicin 0.45; viability z-score without drug 0.84; inactive. Depletion of Or6c74 [SID152262420] resulted in: combined z-score class low cell count with doxorubicin only; viability z-score with doxorubicin -2.14; viability z-score without drug 0.17; active. With knock-down of Cpsf3 [SID152291122], the record shows combined z-score class no change with or without drug; viability z-score with doxorubicin 0; viability z-score without drug -0.84; inactive. Against Pomk [SID152262953], the entry reads combined z-score class no change with or without drug; viability z-score with doxorubicin 0.22; viability z-score without drug -1.52; inactive. Pomk [SID152262953] gave combined z-score class high cell count without drug only; viability z-score with doxorubicin 0.45; viability z-score without drug 3.37; inactive. After knock-down of Col25a1 [SID152319042], the record shows combined z-score class no change with or without drug; viability z-score with doxorubicin 1.8; viability z-score without drug 1.85; inactive.

Knock-down of Ccdc93 [SID152318166] came out at: combined z-score class no change with or without drug; viability z-score with doxorubicin 0.45; viability z-score without drug -1.85; inactive. For Per3 [SID152307286], the entry reads combined z-score class low cell count with doxorubicin only; viability z-score with doxorubicin -2.47; viability z-score without drug -1.18; active. Depletion of Il5 [SID152285569] resulted in: combined z-score class no change with or without drug; viability z-score with doxorubicin -0.45; viability z-score without drug -0.17; inactive. Magea1 [SID152316110] showed combined z-score class low cell count with doxorubicin only; viability z-score with doxorubicin -2.02; viability z-score without drug 0.51; active. With knock-down of Pde4c [SID152323416], the screen gave combined z-score class no change with or without drug; viability z-score with doxorubicin 0.45; viability z-score without drug -0.84; inactive. Silencing of Calcrl [SID152315362] gave: combined z-score class no change with or without drug; viability z-score with doxorubicin -1.8; viability z-score without drug -0.51; inactive.

Rnase4 [SID152285908] scored combined z-score class no change with or without drug; viability z-score with doxorubicin 1.8; viability z-score without drug -1.35; inactive. Uqcrc1 [SID152296685] scored combined z-score class no change with or without drug; viability z-score with doxorubicin -0.56; viability z-score without drug -1.18; inactive. Lyve1 [SID152291552] scored combined z-score class no change with or without drug; viability z-score with doxorubicin 0.56; viability z-score without drug -0.34; inactive. After knock-down of Pck2 [SID152300287] the results were combined z-score class no change with or without drug; viability z-score with doxorubicin 0; viability z-score without drug 0.34; inactive. With knock-down of Pck2 [SID152300287], the record shows combined z-score class no change with or without drug; viability z-score with doxorubicin -0.34; viability z-score without drug 0.51; inactive. With knock-down of Hif1an [SID152318783] the results were combined z-score class no change with or without drug; viability z-score with doxorubicin -0.45; viability z-score without drug 0; inactive.
